# Measurements reported in paper PMC5584137.
# Results are given in words; binding and its absence hold for the method and conditions named. Binding can be weak; no strength is given. For some assays here: In cells and extracts the contact can be indirect. For some assays here: Tags and fused reporters may be left off the sequences shown.
# Tests used:
# [1] = molecular target: KIF17 C-terminal tail domain, yeast-2-hybrid bait (human); assay: two-hybrid; yeast-2-hybrid screen of a library from normal colon epithelial cells (25 μg) with the C-terminal tail domain of KIF17 as bait; iterative rounds of screening
# [2] = molecular target: myc-KIF17-T^ΔNR (human); assay: co-IP; lysates of transfected HEK293 cells one day after transfection; 50 mM HEPES pH 7.4, 150 mM NaCl, 1% Triton-X100 lysis buffer; overnight with anti-myc or anti-GFP antibody, Protein-G sepharose; immunoblot
binding [1],binding [2],Binder
binds,–,"ERR1 ligand-binding and activator function-2 domains (LB/AF2), yeast-2-hybrid prey clones (domain or fragment, UniProt P11474 254-423) LSDQMSVLQSVWMEVLVLGVAQRSLPLQDELAFAEDLVLDEEGARAAGLGELGAALLQLVRRLQALRLEREEYVLLKALALANSDSVHIEDAEAVEQLREALHEALLEYEAGRAGPGGGAERRRAGRLLLTLPLLRQTAGKVLAHFYGVKLEGKVPMHKLFLEMLEAMMD"
–,binds,"full-length GFP-ERR1 (protein, UniProt P11474 1-423) MSSQVVGIEPLYIKAEPASPDSPKGSSETETEPPVALAPGPAPTRCLPGHKEEEDGEGAGPGEQGGGKLVLSSLPKRLCLVCGDVASGYHYGVASCEACKAFFKRTIQGSIEYSCPASNECEITKRRRKACQACRFTKCLRVGMLKEGVRLDRVRGGRQKYKRRPEVDPLPFPGPFPAGPLAVAGGPRKTAAPVNALVSHLLVVEPEKLYAMPDPAGPDGHLPAVATLCDLFDREIVVTISWAKSIPGFSSLSLSDQMSVLQSVWMEVLVLGVAQRSLPLQDELAFAEDLVLDEEGARAAGLGELGAALLQLVRRLQALRLEREEYVLLKALALANSDSVHIEDAEAVEQLREALHEALLEYEAGRAGPGGGAERRRAGRLLLTLPLLRQTAGKVLAHFYGVKLEGKVPMHKLFLEMLEAMMD"
